According to paper PMC6508567:
These are yes or no findings as the source states them, for the method shown.

Biological target: serpin Z4 (barley (Hordeum vulgare) cv. Harrington) (UniProt P06293)
Assay: condition: only with the reducing agent β-mercaptoethanol; cross-linking; as a5 (CuCl2 oxidation), but SDS-PAGE with the reducing agent β-mercaptoethanol, immunoblot; both purified

B1: serpin Z4 (protein, UniProt P06293 1-399)
chain: MATTLATDVRLSIAHQTRFALRLRSAISSNPERAAGNVAFSPLSLHVALSLITAGAAATRDQLVAILGDGGAGDAKELNALAEQVVQFVLANESSTGGPRIAFANGIFVDASLSLKPSFEELAVCQYKAKTQSVDFQHKTLEAVGQVNSWVEQVTTGLIKQILPPGSVDNTTKLILGNALYFKGAWDQKFDESNTKCDSFHLLDGSSIQTQFMSSTKKQYISSSDNLKVLKLPYAKGHDKRQFSMYILLPGAQDGLWSLAKRLSTEPEFIENHIPKQTVEVGRFQLPKFKISYQFEASSLLRALGLQLPFSEEADLSEMVDSSQGLEISHVFHKSFVEVNEEGTEAGAATVAMGVAMSMPLKVDLVDFVANHPFLFLIREDIAGVVVFVGHVTNPLISA
With B1 the binding was “no binding”.
